## Library screening results

The values are deposited in ChEMBL (CHEMBL3988442, “University of Dundee, Small-Polar-MMV Screening Library” (2021)).

Results are given as percent effect.
The record does not define 0% and 100%; most values in the screen are far below 50% and negative numbers occur (in some assays of this library far below -100).
The compounds are a random part of those screened.
Two or more numbers in one place are separate tests of the same structure; such repeats can differ widely.

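Viability assay of Plasmodium falciparum sporozoites; the read-out is not stated. The concentration is filed as 10 mM, unlikely as a test dose, so the dose is not known. Direction is inferred from retests: higher values go with lower viability. Strong results were mostly tested again. Of about 34,000 compounds tested this way, about 280 (0.84%) reached 50% or more in at least one test.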

structure	Percent Effect
COC(=O)N1CC(C)=C(C)CN1C(=O)Nc1ccc(Cl)cc1	-7.177
CC(Cn1cccn1)NC(=O)NCc1cccnc1OC1CCCC1 (centres unmarked)	-12.25
CC(=O)NCCNC(=O)c1sc(-c2ccc(C)cc2C)nc1C	-7.602
O=C(NCCN1CCOCC1)NCC(O)c1cccc(F)c1 (centres unmarked)	3.52
Cc1noc(C)c1CC(=O)N1CC[C@@](C)(O)[C@H](Oc2ccccc2)C1	1.9
CCn1cc(CN(C)C(=O)C(c2ccccc2C)N(C)C)cn1 (centres unmarked)	-2.081
Cc1ncc(CN2CCCN(Cc3noc(C4CC4)n3)CC2)s1	17.64
CCCNC(=O)N1CCC(Oc2cc(C)ccc2F)(C(=O)O)CC1	3.807
Cc1cc(C)nc(N2CCCC(c3cccc(-n4ccnc4)n3)C2)n1 (centres unmarked)	-5.858
Cc1ccc(CN2CCCC3(CCN(S(C)(=O)=O)C3)C2)o1.O=C(O)C(F)(F)F (centres unmarked)	-1.038
O=C(C1CCOCC1)N1CCC(O)(Cn2ccc3ccncc32)CC1	-1.18
O=C(CCN1CCOC1=O)Nc1cnn(-c2ccccc2Cl)c1	15.4
COCc1ccccc1C(=O)N1CCCC(n2nc(C)cc2C)C1 (centres unmarked)	-0.2467
COc1ccc(CN(Cc2cccnc2)CC2CCCO2)c(OC)c1.O=C(O)CC(O)(CC(=O)O)C(=O)O (centres unmarked)	-4.96
O=C(NCC(Cc1cccc(F)c1)N1CCCC1=O)c1ccccc1 (centres unmarked)	3.896
CSCCC(Nc1nc(C)cc(C)n1)C(=O)NC1CC1 (centres unmarked)	-13.46
COC(=O)C1CCN(C(=O)c2ccc(NS(C)(=O)=O)c(C)c2)CC1	-17.78
Cc1ccc(NC2CCN(C(=O)C(C(C)C)n3cncn3)CC2)nn1 (centres unmarked)	-0.6655
CNC(=O)N1CCc2nc(C(=O)NCc3cccc(OC)c3)sc2CC1	2.663
O=C(Cc1ccccc1)N1CCC2(CCN2Cc2ccc(F)cc2)C1.O=C(O)C(F)(F)F (centres unmarked)	3.94
CCc1nc(C2CCCN2CCn2cncn2)no1 (centres unmarked)	-3.2
Cc1ccc(CN2CCCn3c(nc(Cn4cncn4)cc3=O)C2)s1	-1.902
Cc1c(F)cc(C(=O)O)cc1S(=O)(=O)Nc1ccccc1	1.921
CC(C)(C)c1nnc(CSc2ccccn2)o1	5.216
CC(C)NC(=O)C1CCN(c2snc3ccccc23)CC1	-4.576
Cc1nn(C)c(C)c1-c1ccc(=O)n(C(C)C(=O)NC2CC2)n1 (centres unmarked)	-4.171
CC(C)NS(=O)(=O)c1cc(C(=O)O)cc(-c2ccccc2CN(C)C)c1	-11.53
COc1cccc(C)c1C(=O)N1C[C@@H](CN(C)C)[C@@H](CO)C1	-0.2181
Cc1ccc(CNCCOc2ccc(S(C)(=O)=O)cc2)cc1	-0.8419
CC(C)c1nnc2n1CCN(Cc1csc(CC(=O)N(C)C)n1)C2	11.21
Br.Cn1cc(CN2CCC(c3cc(COc4cccc(Cl)c4)[nH]n3)C2)cn1 (centres unmarked)	5.115
CCC(C)(C)n1nnnc1C(c1cccs1)N1CCCCC1 (centres unmarked)	0.8244
Cc1cnccc1CN1CC[C@H](Oc2cccc(F)c2)[C@@](C)(O)C1	5.188
COCc1nc(CNC2CCSCC2)no1	-8.212
COc1ccc(C2CC(=O)NCc3nc4ccccn4c32)cn1 (centres unmarked)	-22.16
CCC(CN1CCCC1)NC(=O)Cc1c(C)[nH]c2cc(C)cc(C)c12 (centres unmarked)	-0.7167
Cc1cc(CN(C)C(C(=O)O)c2ccc(C(C)(C)C)cc2)on1 (centres unmarked)	1.298
CC(C)c1n[nH]c(C2CN(Cc3nnc(C4CC4)n3C)CCO2)n1 (centres unmarked)	2.676
CN(Cc1cccnc1)Cc1cncc2c1CCN(Cc1ccoc1)C2.Cl.Cl.Cl	-22.02 & -32.59 & 13.37
CS(=O)(=O)N1CCC2(CC1)CC(CC(=O)NCC1CC1)c1ccccc12 (centres unmarked)	-7.302
O=C(O)C(F)(F)F.O=C(O)C(F)(F)F.[H][C@@]12COC[C@]1(COc1cccnc1)CN(Cc1cccs1)C2	-3.157
CNc1cc(C2CCN2c2ncccn2)nc(C)n1 (centres unmarked)	14.83
O=C(Cc1csc(N2CCNC2=O)n1)NC1(c2ccccc2)CCC1	-4.973
Cc1ccc(-c2noc(C3CCN3C(=O)c3c(C)noc3C)n2)s1 (centres unmarked)	12.96
Cc1cccc(-c2ccc3nc(C4CCN(CC5CC5)CC4)nn3c2)c1.O=C(O)C(F)(F)F	-8.513
O=C(NCCN1CCOCC1)C1=NOC2(CCN(Cc3nccs3)C2)C1 (centres unmarked)	-19.71
NC(=O)CN1CCN(C(=O)c2cc(Cl)cc3cccnc23)CC1	4.787
Cc1nc(CN2CCCC(NCc3sccc3C)C2)no1 (centres unmarked)	-11
O=C(O)C(F)(F)F.O=C(O)C(F)(F)F.c1ccc(OCC2CC3(CCN(c4ncccn4)CC3)CO2)nc1 (centres unmarked)	-11.62
CCOC(=O)c1sc2ccsc2c1CN.Cl	0.5848
[H][C@]12CC[C@]([H])(CN(c3ncccn3)C1)N(C(=O)c1ccc[nH]1)C2	-15.92
CCN1CCC(=O)N(C)Cc2cc(F)ccc21	-45.78
CCc1nc(C)c([C@H]2CN(C)C[C@@H]2C(=O)NCCc2cnccn2)[nH]1	-11.41
Cn1cc(C2CCCN2C(=O)COCCOc2ccccc2)cn1 (centres unmarked)	1.376
O=C(CCc1cccnc1)N1CCC(c2cnccn2)CC1	5.462
[H][C@]12CC[C@]([H])(CN(C(=O)c3ccc(N(C)CCO)cc3)C1)N(CCC)C2	-13.4 & -27.4
CCN(CC)C(=O)CN1CCc2c(nc(C3CCNCC3)nc2NC)C1.Cl	-2.002
CN(CC(=O)N1CCC(C(O)c2ccccc2)CC1)c1cnccn1 (centres unmarked)	8.605
NC(=O)C1CCCN(C(=O)c2cccc(OCc3cscn3)c2)C1 (centres unmarked)	4.917
O=C(c1ccncc1F)N1CCN(CC2CC2)c2ncccc2C1	1.974
COc1ccc(CC(=O)N2CC(=O)NCC(C)(C)C2)cc1	4.498
O=C(O)C(F)(F)F.[H][C@@]12CCN(Cc3sccc3C)C[C@]1(C(=O)N1CCCO1)CCO2	35.08 & -19.34 & -16.11
O=C(Nc1nccs1)C1CCCN1Cc1ccccn1 (centres unmarked)	-3.52
CCn1c(C)nnc1SCCn1cc(-c2ncc[nH]2)nn1	-22.62
Cc1ccc(CN2CCOCC2)cc1NC(=O)c1ccsc1	-4.973
Cc1cnc(CNS(=O)(=O)CCC2CCCO2)o1 (centres unmarked)	3.003
Cc1nc(C2(O)CCCNCC2)sc1CCOc1ccc(Cl)cc1.Cl (centres unmarked)	-2.488
[H][C@@]12COC[C@]1(COc1cccnc1)CN(C(=O)C1=CCCC1)C2	-12.57
Cn1ccc(C(=O)N2CCCC(c3cc(O)n(C)n3)C2)n1 (centres unmarked)	-8.178
CC(C)c1cc(N(C)Cc2noc(C3CCCC3)n2)n2nccc2n1	-9.077
CCN1CCC(CNCc2cc(C)ccc2OC)C1 (centres unmarked)	18.11
O=C(c1ccoc1)N1CCC(NCc2ccccc2-n2ccnc2)CC1	-1.829
CC(=O)N1CCc2c(nc(-c3ccccn3)nc2N(C)CC(O)CO)C1 (centres unmarked)	5.301
O=C(O)C(F)(F)F.[H][C@@]12CCN(Cc3ccsc3)C[C@@]1([H])[C@H](C(=O)NC)CCO2	4.897
COc1ccc(CC(=O)N2CCCC(c3cc(C)[nH]n3)C2)cc1 (centres unmarked)	-11.71
CC(C(=O)N1CCCC1)N1CCCN(C(=O)Oc2ccccc2)CC1 (centres unmarked)	-0.3195
O=C(O)C(F)(F)F.O=C(O)C(F)(F)F.[H][C@]12C[C@@H](CN(C)C)N(C(C)=O)[C@@]1([H])CCN(C(=O)c1cncc(C)c1)C2	8.844
Cc1nc(NC(=O)NCCCN2CCC(C(N)=O)CC2)sc1C	-0.3581
O=C(C1CCOC1)N1CCN(Cc2cccnc2)c2ncccc2C1 (centres unmarked)	35.08 & -15.73 & -24.63
Cc1nn(C)c(C)c1C1CCCN1CC(=O)Nc1cc(C(C)C)no1 (centres unmarked)	7.971
CC(C)c1nccn1C1CCCN(C(=O)C2=NN(C)C(=O)CC2)C1 (centres unmarked)	-8.95
[H][C@@]12CCCCN(C)[C@]1([H])[C@@H](c1ccccc1)CCN2C(=O)c1ccccn1	-7.785
COc1cc(C(=O)N2CCCC(CNS(C)(=O)=O)C2)ccc1C (centres unmarked)	2.048 & 2 & 0.4507
COc1cccc(OC)c1-c1ccnc2cc(CC(=O)NC3CC3)nn12	-0.254
CCc1csc(C2CCCN(C(=O)c3ccc(OC)nc3)C2)n1 (centres unmarked)	-7.135
CCC(CC)C(=O)NCCc1ccn(-c2ccccc2)n1	1.013
COc1cc(NC(=O)c2ccc(C)c(F)c2)c(C(=O)N(C)C)cc1OC	-4.167
Cc1cnn(C2CCCN(C(=O)Cn3ccc(=O)n(C)c3=O)C2)c1 (centres unmarked)	-2.558
Cc1nc(Nc2nccs2)cc(C2CCCN2C2CCOCC2)n1 (centres unmarked)	-21.21
O=C(C1CC1)N1CCCC(C2=Nc3ccccc3S(=O)(=O)N2)C1 (centres unmarked)	-6.737
CS(=O)(=O)N1CCOCC2(CN(Cc3ccsc3)CCO2)C1.O=C(O)C(F)(F)F (centres unmarked)	-9.074
[H][C@@]12C[C@@H](OC)C[C@]1([H])CN(C(=O)c1cc3ccc(F)cc3[nH]1)C2	-0.5201

Once more, the final 6:

| structure | Percent Effect |
|---|---|
| `COc1cc(NC(=O)c2ccc(C)c(F)c2)c(C(=O)N(C)C)cc1OC` | -4.167 |
| `Cc1cnn(C2CCCN(C(=O)Cn3ccc(=O)n(C)c3=O)C2)c1` (centres unmarked) | -2.558 |
| `Cc1nc(Nc2nccs2)cc(C2CCCN2C2CCOCC2)n1` (centres unmarked) | -21.21 |
| `O=C(C1CC1)N1CCCC(C2=Nc3ccccc3S(=O)(=O)N2)C1` (centres unmarked) | -6.737 |
| `CS(=O)(=O)N1CCOCC2(CN(Cc3ccsc3)CCO2)C1.O=C(O)C(F)(F)F` (centres unmarked) | -9.074 |
| `[H][C@@]12C[C@@H](OC)C[C@]1([H])CN(C(=O)c1cc3ccc(F)cc3[nH]1)C2` | -0.5201 |